Source: paper PMC10627786

Amino acid sequences for entries named in this document (tags omitted).
UniProt Q96RL7: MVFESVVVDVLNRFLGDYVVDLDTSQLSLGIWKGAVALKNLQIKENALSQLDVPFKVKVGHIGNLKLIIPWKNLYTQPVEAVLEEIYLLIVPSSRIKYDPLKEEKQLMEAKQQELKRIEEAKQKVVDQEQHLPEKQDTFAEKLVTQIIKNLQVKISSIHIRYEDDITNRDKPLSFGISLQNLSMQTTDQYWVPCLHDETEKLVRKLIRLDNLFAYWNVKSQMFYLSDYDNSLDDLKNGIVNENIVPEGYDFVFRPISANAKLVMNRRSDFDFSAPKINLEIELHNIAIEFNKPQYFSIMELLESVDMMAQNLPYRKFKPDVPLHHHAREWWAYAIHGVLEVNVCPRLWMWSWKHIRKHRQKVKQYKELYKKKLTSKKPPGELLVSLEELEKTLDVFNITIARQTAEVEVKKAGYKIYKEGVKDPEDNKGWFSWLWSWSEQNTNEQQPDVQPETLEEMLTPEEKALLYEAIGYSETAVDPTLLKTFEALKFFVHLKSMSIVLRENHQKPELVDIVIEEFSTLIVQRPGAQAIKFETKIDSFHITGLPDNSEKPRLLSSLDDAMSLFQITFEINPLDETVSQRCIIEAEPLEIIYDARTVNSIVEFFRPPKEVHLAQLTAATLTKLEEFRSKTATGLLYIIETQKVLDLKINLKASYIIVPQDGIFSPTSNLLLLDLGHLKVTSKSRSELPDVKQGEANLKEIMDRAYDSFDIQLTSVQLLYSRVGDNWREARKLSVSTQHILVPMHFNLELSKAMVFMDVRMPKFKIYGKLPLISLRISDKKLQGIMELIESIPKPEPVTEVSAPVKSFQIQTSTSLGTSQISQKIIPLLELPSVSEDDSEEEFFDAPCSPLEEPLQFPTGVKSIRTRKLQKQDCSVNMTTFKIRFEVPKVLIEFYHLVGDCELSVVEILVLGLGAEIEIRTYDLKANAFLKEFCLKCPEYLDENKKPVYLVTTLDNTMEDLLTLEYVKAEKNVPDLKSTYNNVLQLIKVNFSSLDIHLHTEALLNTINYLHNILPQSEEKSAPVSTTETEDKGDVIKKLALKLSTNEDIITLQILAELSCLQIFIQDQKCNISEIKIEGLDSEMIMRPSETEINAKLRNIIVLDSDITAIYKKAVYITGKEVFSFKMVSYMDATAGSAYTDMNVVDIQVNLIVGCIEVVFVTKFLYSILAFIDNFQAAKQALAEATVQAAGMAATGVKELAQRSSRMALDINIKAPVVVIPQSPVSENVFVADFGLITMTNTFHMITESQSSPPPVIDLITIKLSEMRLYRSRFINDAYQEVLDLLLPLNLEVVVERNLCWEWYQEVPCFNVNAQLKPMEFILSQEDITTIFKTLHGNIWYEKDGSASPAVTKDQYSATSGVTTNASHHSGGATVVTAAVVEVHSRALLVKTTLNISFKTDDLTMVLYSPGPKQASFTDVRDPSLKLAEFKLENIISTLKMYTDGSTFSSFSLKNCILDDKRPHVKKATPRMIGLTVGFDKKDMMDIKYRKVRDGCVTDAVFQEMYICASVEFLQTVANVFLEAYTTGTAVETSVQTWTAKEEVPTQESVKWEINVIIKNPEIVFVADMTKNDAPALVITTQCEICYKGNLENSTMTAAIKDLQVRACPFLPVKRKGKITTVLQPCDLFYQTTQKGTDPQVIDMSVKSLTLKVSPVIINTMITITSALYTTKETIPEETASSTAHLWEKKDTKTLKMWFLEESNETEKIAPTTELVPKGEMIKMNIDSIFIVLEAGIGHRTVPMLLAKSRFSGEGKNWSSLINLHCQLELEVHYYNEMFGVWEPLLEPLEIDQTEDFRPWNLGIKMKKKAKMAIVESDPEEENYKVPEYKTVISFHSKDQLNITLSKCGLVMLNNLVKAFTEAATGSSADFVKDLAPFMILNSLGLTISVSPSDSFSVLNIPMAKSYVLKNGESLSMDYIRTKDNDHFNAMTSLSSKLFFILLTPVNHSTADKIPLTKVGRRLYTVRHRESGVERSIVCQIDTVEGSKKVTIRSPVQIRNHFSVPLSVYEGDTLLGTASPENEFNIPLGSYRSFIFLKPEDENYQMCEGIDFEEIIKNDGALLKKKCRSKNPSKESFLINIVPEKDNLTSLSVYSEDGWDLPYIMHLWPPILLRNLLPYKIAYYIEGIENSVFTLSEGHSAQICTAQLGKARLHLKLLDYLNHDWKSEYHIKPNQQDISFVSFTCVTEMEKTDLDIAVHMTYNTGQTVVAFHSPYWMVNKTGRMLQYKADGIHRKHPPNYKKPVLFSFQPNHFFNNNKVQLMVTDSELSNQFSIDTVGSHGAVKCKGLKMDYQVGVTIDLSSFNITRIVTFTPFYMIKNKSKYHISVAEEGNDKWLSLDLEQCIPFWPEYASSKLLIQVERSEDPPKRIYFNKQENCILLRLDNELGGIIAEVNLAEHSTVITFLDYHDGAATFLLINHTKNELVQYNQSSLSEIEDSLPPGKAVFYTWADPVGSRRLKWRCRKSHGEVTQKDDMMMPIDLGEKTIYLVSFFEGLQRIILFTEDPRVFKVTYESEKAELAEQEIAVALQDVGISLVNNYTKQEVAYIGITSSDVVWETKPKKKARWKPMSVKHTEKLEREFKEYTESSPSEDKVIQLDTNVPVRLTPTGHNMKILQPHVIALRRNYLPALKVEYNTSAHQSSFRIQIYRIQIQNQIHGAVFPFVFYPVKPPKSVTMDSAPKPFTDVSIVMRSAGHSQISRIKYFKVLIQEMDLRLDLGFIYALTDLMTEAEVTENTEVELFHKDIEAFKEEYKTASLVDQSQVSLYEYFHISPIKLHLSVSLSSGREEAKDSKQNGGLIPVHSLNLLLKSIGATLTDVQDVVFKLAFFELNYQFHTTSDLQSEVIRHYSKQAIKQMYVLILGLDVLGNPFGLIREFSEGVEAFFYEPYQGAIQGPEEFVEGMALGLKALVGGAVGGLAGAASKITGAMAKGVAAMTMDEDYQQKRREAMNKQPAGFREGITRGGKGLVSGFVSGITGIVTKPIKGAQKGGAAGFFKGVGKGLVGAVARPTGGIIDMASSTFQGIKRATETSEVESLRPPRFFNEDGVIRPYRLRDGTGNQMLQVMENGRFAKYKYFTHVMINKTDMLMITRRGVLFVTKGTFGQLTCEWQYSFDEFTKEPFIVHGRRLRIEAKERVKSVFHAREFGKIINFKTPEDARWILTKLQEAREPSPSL

T1: SYNJ2BP fused with BirA*-FLAG (BioID bait) (human) (UniProt P57105)
T1 sequence: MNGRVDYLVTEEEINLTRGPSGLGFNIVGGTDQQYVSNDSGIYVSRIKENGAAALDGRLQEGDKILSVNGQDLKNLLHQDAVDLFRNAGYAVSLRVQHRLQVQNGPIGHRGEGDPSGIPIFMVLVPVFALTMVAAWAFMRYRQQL

T2: ESYT1 fused with BirA*-FLAG (BioID bait) (human) (UniProt Q9BSJ8)
T2 sequence: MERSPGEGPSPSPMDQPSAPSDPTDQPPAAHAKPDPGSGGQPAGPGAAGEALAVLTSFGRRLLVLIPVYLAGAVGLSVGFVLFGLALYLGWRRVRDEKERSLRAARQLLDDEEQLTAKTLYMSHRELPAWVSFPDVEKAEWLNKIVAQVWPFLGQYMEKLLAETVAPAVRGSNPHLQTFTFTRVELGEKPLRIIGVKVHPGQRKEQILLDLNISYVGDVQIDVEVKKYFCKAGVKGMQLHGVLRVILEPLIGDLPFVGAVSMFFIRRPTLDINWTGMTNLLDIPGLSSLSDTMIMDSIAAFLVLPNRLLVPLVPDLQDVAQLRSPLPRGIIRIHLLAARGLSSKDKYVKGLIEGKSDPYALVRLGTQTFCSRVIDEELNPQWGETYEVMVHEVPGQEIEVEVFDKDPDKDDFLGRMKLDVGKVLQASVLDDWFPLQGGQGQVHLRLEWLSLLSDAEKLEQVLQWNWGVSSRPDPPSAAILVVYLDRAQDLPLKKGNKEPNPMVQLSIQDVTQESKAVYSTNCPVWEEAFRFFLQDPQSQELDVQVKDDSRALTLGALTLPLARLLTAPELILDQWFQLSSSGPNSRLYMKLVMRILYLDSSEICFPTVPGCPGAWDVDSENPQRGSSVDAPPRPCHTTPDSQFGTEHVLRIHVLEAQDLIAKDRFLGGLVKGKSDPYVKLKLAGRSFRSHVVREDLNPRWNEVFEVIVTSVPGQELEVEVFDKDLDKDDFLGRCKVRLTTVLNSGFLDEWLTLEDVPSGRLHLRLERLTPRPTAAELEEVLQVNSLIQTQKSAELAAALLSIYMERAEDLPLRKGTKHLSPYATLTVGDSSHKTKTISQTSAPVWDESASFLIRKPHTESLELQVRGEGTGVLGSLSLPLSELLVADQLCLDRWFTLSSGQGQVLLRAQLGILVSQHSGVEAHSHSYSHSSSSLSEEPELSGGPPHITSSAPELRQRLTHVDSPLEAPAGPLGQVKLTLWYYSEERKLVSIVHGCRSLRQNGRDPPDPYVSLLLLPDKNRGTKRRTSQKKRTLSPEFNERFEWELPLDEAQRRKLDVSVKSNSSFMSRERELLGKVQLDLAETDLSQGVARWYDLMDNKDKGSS


Key:
[1] = biological target: T1, SYNJ2BP fused with BirA*-FLAG (BioID bait) (human); test: proximity labelling; BioID in stable inducible Flp-In T-REx 293 cells expressing BirA*-FLAG baits; mass spectrometry of biotinylated preys; SAINTexpress, two biological replicates per bait, 50 negative control runs, BFDR threshold 1%
[2] = biological target: T2, ESYT1 fused with BirA*-FLAG (BioID bait) (human); test: as above

Molecule | binding [1] | binding [2]
VPS13D (from UniProt Q5THJ4 1-4388) | binds | –
VPS13A (from UniProt Q96RL7 1-3174) | binds | –
ESYT2 (endogenous prey in BioID) (protein, UniProt A0FGR8 1-921) MTANRDAALSSHRHPGCAQRPRTPTFASSSQRRSAFGFDDGNFPGLGERSHAPGSRLGARRRAKTARGLRGHRQRGAGAGLSRPGSARAPSPPRPGGPENPGGVLSVELPGLLAQLARSFALLLPVYALGYLGLSFSWVLLALALLAWCRRSRGLKALRLCRALALLEDEERVVRLGVRACDLPAWVHFPDTERAEWLNKTVKHMWPFICQFIEKLFRETIEPAVRGANTHLSTFSFTKVDVGQQPLRINGVKVYTENVDKRQIILDLQISFVGNCEIDLEIKRYFCRAGVKSIQIHGTMRVILEPLIGDMPLVGALSIFFLRKPLLEINWTGLTNLLDVPGLNGLSDTIILDIISNYLVLPNRITVPLVSEVQIAQLRFPVPKGVLRIHFIEAQDLQGKDTYLKGLVKGKSDPYGIIRVGNQIFQSRVIKENLSPKWNEVYEALVYEHPGQELEIELFDEDPDKDDFLGSLMIDLIEVEKERLLDEWFTLDEVPKGKLHLRLEWLTLMPNASNLDKVLTDIKADKDQANDGLSSALLILYLDSARNLPSGKKISSNPNPVVQMSVGHKAQESKIRYKTNEPVWEENFTFFIHNPKRQDLEVEVRDEQHQCSLGNLKVPLSQLLTSEDMTVSQRFQLSNSGPNSTIKMKIALRVLHLEKRERPPDHQHSAQVKRPSVSKEGRKTSIKSHMSGSPGPGGSNTAPSTPVIGGSDKPGMEEKAQPPEAGPQGLHDLGRSSSSLLASPGHISVKEPTPSIASDISLPIATQELRQRLRQLENGTTLGQSPLGQIQLTIRHSSQRNKLIVVVHACRNLIAFSEDGSDPYVRMYLLPDKRRSGRRKTHVSKKTLNPVFDQSFDFSVSLPEVQRRTLDVAVKNSGGFLSKDKGLLGKVLVALASEELAKGWTQWYDLTEDGTRPQAMT | – | binds

These are yes or no findings as the source states them, for the method shown. Binding seen in cells or lysates may run through a third protein. A yes stands for co-enrichment or nearness to the bait. Other partners may have been found. Where a sequence is shown, tags or fusion partners need not be part of it.
